# PubChem BioAssay AID2517 (National Center for Advancing Translational Sciences (NCATS), 2010)
# The chains behind the UniProt entries cited, without tags or fusion partners.
# UniProt P27695, whole entry, looked up: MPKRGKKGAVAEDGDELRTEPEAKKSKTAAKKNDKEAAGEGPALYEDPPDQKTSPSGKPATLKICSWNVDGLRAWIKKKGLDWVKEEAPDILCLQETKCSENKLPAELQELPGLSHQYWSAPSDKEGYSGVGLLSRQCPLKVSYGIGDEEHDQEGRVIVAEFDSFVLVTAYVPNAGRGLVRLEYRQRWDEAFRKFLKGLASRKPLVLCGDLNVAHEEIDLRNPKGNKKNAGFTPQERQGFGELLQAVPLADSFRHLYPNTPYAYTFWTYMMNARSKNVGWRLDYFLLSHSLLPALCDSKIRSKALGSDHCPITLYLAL
# Where “and” joins values, the source holds several entries; their conditions need not be identical. Identical values can stand only once. In all, about 350,000 compounds went through this assay and about 1,200 (0.34%) were called active. The inconclusive results got no clear call from the source; some entries with a clear call stand among them for comparison. Calls follow the shape of the dose curve; as a rule, active = well fitted inhibition curve with a large enough effect; inconclusive = small, poorly fitted or top-dose-only effect; inactive = no such curve, though single readings can be large or run the other way. A potency beside an inconclusive call is a rough fit, not a confirmed value.
# Target: DNA repair nuclease/redox regulator APEX1 (Homo sapiens) (UniProt P27695)
# Assay: qHTS Assay for Inhibitors of the Human Apurinic/apyrimidinic Endonuclease 1 (APE1); also: nearly all actives have a fitted effect of over 55% in size;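 as to activity change, negative = inhibition: plate controls were vehicle for no effect and reference inhibitor for full effect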
# Conditions: recombinant APE1, TAMRA/BHQ-2 abasic DNA cleavage fluorescence; activity change, negative = inhibition: at 65.8 µM (top of the series)
# How it was run: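 Step 1: APE1 (0.75 nM) with compound, 15 min RT. Step 2: add 50 nM fluorophore/quencher THF duplex. Step 3: three fluorescence reads 60 s apart (525/598 nm); read 3 minus read 1 = reaction progress.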
# Potency is read from the fitted curve at half-maximal effect.
SMILES,"activity change, negative = inhibition",Potency
CC1(C)C(=O)Nc2ccccc2N1C(=O)COC(=O)CCSc1ccccc1,inactive: 2.69%,
COC(=O)C1CCN(CC(=O)Nc2sc3c(c2C#N)CCC3)CC1,inactive: -3.73%,
Cc1cc(C)n(-c2nnc3n2N=C(c2c[nH]c4ccccc24)CS3)n1,,"inconclusive: 39.8 µM [inhibitor, single point]"
Cc1cccc(C)c1NC(=O)CN1C(=O)S/C(=C\c2cccn2C)C1=O,inactive: 3.17%,
O=C(Oc1cc(=O)oc2ccccc12)c1cccnc1Cl,,"inconclusive: 39.8 µM [inhibitor, single point]"
COCC(C)OC(=O)C(C#N)c1nc2ccccc2nc1N1CCN(Cc2ccccc2)CC1 (centres undefined),,"inconclusive: 39.8 µM [inhibitor, single point]"
CC(=O)Nc1cccc(NC(=O)c2csc(C)c2)c1,,"inconclusive: 18.9 µM [inhibitor, single point]"
COc1ccc(C(=O)CSc2nnc(-c3ccco3)n2CC2CCCO2)cc1 (centres undefined),inactive: -3.7%,
CCC(=O)Nc1ccc(S(=O)(=O)NCc2ccco2)cc1,,"inconclusive: 39.8 µM [inhibitor, single point]"
Cc1ccc(S(=O)(=O)c2c(N)n(Cc3ccco3)c3nc4ccccc4nc23)cc1,inactive: -4.32%,
CC(Sc1nnc2ccccn12)C(=O)Nc1ccc2c(c1)OCCO2 (centres undefined),,"inconclusive: 0.562 µM [inhibitor, full curve, poor fit]"
COc1cccc(-c2cc(=O)c3ccccc3o2)c1N,,"inactive and inconclusive: 39.8 µM [inhibitor, single point]"
COC(=O)C(C(C)=O)C(NC(=O)NCc1ccccc1)c1ccccc1 (centres undefined),,"inconclusive: 8.91 µM [inhibitor, single point]"
CC1CCCCC1NC(=O)COC(=O)c1ccc(S(=O)(=O)NCc2ccco2)cc1 (centres undefined),,"inconclusive: 28.2 µM [inhibitor, partial curve]"
O=C(COC(=O)c1ccc([N+](=O)[O-])s1)Nc1cccc(S(=O)(=O)NC2=NCCCCC2)c1,,"inconclusive: 28.2 µM [inhibitor, single point]"
CC(=O)NS(=O)(=O)c1ccc(NC(=O)CCc2ccccc2)cc1,,"inconclusive: 0.199 µM [inhibitor, full curve, poor fit]"
CSCCC(NS(=O)(=O)c1ccc2c(c1)c(=O)n(C)c(=O)n2C)C(=O)NC1CCN(Cc2ccccc2)CC1 (centres undefined),,"inconclusive: 28.2 µM [inhibitor, single point]"
NC1=NC(=Nc2ccc(S(N)(=O)=O)cc2)c2ccccc21,,"inconclusive: 8.91 µM [inhibitor, single point]"
Cc1ccc(OC(=O)CCN2C(=O)c3ccccc3C2=O)cc1C,,"inconclusive: 31.6 µM [inhibitor, single point]"
Cc1ccc(S(=O)(=O)c2c(N)n(/N=C/c3ccco3)c3nc4ccccc4nc23)cc1,inactive: -4.41%,
Cc1cc[n+](-c2[nH]c(=O)sc2/C=N/N=C(\[O-])c2ccncc2)cc1,inactive: 7.42%,
Cc1cc(C)cc(-n2cc(C(=O)O)c(=O)cc2C)c1,,"inconclusive: 0.005 µM [inhibitor, full curve, poor fit]"

SMILES,"activity change, negative = inhibition",Potency
CCc1ccc(OCC(=O)N/N=C\c2ccco2)c([N+](=O)[O-])c1,,"inconclusive: 22.4 µM [inhibitor, partial curve, poor fit]"
Nc1ccc(Nc2ccccc2)cc1,,"inconclusive: 6.31 µM [inhibitor, full curve, poor fit]"
CCCOc1ccc(C(=O)c2ccccc2C(=O)O)cc1OCCC,,"inconclusive: 7.08 µM [inhibitor, partial curve]"
N[C@@](C(=O)O)(c1ccc(P(=O)(O)O)cc1)C1CC1,inactive: -1.8%,
COc1cc(C(=S)N2CCOCC2)ccc1OC(=O)/C=C/c1ccco1,,"inconclusive: 39.8 µM [inhibitor, single point]"
CCCn1c(=S)[nH]c2ccccc2c1=O,,"inconclusive: 0.631 µM [inhibitor, partial curve]"
C=CC(C1=CC(=O)C(OC)=CC1=O)c1ccc(OC)cc1 (centres undefined),inactive: -6.32%,
COc1cc(/C=C2/SC(=S)N(Cc3ccccc3)C2=O)ccc1OCC(=O)O,inactive: 17.4%,
O=Cc1ccc2oc3nc4n(c(=O)c3c(=O)c2c1)CCCS4,,"inconclusive: 25.1 µM [inhibitor, single point]"
O/N=C1/CCCSc2ccccc21,,"inconclusive: 44.7 µM [inhibitor, single point]"
C/C(=N\NC(=O)c1nnn(-c2nonc2N)c1CN(C)C)c1ccco1,inactive: -8.6%,
COCCNC(=O)C1(C(F)(F)F)C/C(=C\Cc2ccccc2)CCCO1 (centres undefined),,"inconclusive: 35.5 µM [inhibitor, single point]"
Cc1cc(NC(=O)c2ccc(S(=O)(=O)N(C)CC3CCCO3)cc2)no1 (centres undefined),,"inconclusive: 1.41 µM [inhibitor, full curve]"
COc1ccc(OC)c(/C=N/NC(=O)c2cc3c(OC)c(OC)ccc3[nH]2)c1,,"inconclusive: 28.2 µM [inhibitor, single point]"
CCOC(=O)OCC1OC(c2ccccc2)C=CC1Oc1ccc2oc(=O)cc(C)c2c1 (centres undefined),,"inconclusive: 3.55 µM [inhibitor, single point]"
CN(C)/C=C/C(=O)c1ccc(S(=O)(=O)c2ccccc2)cc1,,"inconclusive: 8.91 µM [inhibitor, partial curve, poor fit]"
N#CC1=C(N)NC(=S)C(C(N)=O)C1c1ccc([N+](=O)[O-])cc1 (centres undefined),inactive: -0.858%,
CCCCN(S(=O)(=O)c1ccccc1)S(=O)(=O)c1ccccc1,,"inconclusive: 37.7 µM [inhibitor, single point]"
Oc1ccccc1Oc1ncc(Br)c(Cl)n1,,"inconclusive: 26.7 µM [inhibitor, single point]"
COc1cccc(/C=C2\N=C(c3c(-c4ccccc4)noc3C)OC2=O)c1OC,,"inconclusive: 3.16 µM [inhibitor, partial curve]"
Nc1ccc(OC(=O)Nc2ccc(O)cc2)cc1,,"inconclusive: 14.1 µM [inhibitor, partial curve, poor fit]"
Cc1ccc(OCC(=O)N2CCN(c3nnc(-c4ccccc4)c4ccccc34)CC2)cc1,,"inconclusive: 8.91 µM [inhibitor, single point]"
